Assay results reported in paper PMC5997682.
These are yes or no findings as the source states them, for the method shown. In cells and extracts the contact can be indirect. These calls come from enrichment with a bait or labelling near it, and not all partners need be listed.

Sequences of proteins named here, by UniProt entry; tags and fusion partners are left off.
UniProt Q05397: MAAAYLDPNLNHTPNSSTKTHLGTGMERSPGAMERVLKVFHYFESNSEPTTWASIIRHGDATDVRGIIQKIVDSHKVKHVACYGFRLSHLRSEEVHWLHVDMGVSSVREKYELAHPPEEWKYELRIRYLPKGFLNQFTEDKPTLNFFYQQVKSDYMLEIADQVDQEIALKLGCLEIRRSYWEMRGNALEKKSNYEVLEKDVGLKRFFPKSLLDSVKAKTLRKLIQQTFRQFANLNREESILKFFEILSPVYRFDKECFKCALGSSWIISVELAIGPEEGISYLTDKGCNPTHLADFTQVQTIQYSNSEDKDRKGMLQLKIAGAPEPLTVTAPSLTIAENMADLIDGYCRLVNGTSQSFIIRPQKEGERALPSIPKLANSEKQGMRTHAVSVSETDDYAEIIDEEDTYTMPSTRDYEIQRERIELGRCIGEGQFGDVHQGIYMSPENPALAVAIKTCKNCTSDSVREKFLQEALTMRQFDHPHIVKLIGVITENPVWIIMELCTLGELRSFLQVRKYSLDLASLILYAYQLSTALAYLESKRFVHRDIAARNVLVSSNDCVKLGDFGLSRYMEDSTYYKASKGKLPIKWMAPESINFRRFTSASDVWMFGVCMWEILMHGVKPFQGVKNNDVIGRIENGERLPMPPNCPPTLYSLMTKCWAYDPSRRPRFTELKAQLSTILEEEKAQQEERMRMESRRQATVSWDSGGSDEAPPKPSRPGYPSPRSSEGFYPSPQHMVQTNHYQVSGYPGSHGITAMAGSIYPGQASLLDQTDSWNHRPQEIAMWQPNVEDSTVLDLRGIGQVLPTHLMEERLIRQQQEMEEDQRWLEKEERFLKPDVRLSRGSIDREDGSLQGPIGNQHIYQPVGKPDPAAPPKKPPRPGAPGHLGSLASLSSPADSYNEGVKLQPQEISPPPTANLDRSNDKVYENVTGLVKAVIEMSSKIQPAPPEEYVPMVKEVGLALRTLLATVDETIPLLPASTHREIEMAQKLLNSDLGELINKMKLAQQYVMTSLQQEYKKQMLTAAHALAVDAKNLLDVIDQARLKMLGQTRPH

Biological target: T1, endogenous Caspr1 in HBMECs (human (endogenous in HBMECs)) (UniProt P78357)
T1 sequence: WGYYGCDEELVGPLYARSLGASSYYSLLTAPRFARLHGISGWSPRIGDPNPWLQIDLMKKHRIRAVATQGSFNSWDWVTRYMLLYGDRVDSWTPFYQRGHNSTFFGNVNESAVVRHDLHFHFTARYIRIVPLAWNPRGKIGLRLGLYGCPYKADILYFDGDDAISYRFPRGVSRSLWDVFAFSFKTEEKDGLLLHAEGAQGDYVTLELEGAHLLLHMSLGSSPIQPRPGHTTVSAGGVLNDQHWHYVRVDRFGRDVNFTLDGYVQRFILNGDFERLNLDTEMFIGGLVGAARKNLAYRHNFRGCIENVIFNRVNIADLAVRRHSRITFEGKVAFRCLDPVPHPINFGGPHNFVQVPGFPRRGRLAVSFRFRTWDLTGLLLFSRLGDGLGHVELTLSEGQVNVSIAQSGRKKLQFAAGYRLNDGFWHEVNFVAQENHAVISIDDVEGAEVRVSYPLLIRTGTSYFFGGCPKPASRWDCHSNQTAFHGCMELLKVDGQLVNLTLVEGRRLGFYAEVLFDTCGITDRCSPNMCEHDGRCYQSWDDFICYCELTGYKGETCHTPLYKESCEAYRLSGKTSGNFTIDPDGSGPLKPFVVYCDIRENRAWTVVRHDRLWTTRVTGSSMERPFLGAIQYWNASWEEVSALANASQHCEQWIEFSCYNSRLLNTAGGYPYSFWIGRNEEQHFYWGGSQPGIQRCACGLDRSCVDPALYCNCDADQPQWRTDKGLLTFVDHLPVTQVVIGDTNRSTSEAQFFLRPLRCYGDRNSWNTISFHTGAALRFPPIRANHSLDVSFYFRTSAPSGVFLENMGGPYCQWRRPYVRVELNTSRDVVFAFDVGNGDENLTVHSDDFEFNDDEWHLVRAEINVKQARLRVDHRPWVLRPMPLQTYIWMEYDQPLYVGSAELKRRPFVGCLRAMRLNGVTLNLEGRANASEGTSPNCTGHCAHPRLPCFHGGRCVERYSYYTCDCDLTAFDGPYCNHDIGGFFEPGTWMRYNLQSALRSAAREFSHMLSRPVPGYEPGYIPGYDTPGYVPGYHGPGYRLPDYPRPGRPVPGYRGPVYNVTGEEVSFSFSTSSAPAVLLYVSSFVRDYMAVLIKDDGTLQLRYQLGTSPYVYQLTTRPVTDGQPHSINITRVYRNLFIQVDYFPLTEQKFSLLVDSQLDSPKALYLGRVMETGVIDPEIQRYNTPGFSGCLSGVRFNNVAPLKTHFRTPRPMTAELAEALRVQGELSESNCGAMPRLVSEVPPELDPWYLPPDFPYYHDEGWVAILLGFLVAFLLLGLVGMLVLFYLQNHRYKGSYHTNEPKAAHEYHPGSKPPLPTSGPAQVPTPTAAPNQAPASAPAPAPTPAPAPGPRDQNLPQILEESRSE
Assay: affinity purification with mass spectrometry; pulldown experiments followed by mass spectrometry in HBMECs; bait and conditions not told (Supplementary Fig. 4A)

- binding: binds
Substance: focal adhesion kinase (FAK), endogenous in HBMECs (from UniProt Q05397 1-1052) (enzyme)
